{
  "source": "paper PMC10415273",
  "binders": {"B1": {"name": "endogenous mouse MAVS, Q8VCF0 1-503 (protein)", "chain": "MTFAEDKTYKYIRDNHSKFCCVDVLEILPYLSCLTASDQDRLRASYRQIGNRDTLWGLFNNLQRRPGWVEVFIRALQICELPGLADQVTRVYQSYLPPGTSLRSLEPLQLPDFPAAVSGPSAFAPGHNIPDHGLRETPSCPKPVQDTQPPESPVENSEQLLQTNSGAVARMSGGSLIPSPNQQALSPQPSREHQEQEPELGGAHAANVASVPIATYGPVSPTVSFQPLPRTALRTNLLSGVTVSALSADTSLSSSSTGSAFAKGAGDQAKAATCFSTTLTNSVTTSSVPSPRLVPVKTMSSKLPLSSKSTAAMTSTVLTNTAPSKLPSNSVYAGTVPSRVPASVAKAPANTIPPERNSKQAKETPEGPATKVTTGGNQTGPNSSIRSLHSGPEMSKPGVLVSQLDEPFSACSVDLAISPSSSLVSEPNHGPEENEYSSFRIQVDESPSADLLGSPEPLATQQPQEEEEHCASSMPWAKWLGATSALLAVFLAVMLYRSRRLAQ"}},
  "target": "T1, endogenous mouse MAVS (mouse (endogenous in MEF)), Q8VCF0",
  "T1 chain": "B1 chain",
  "assay": "SDD-AGE",
  "conditions": "remark: other sources report otherwise",
  "note": "No constants are given. Whether binding was seen depends on the method and setting. Some results given as binding are weak or reduced against the parent protein; the word gives no strength.",
  "data": [
    {"binder": "B1", "values": [
      {"measurement": "binding", "value": "binds"}
    ]}
  ]
}
